Source: PubChem BioAssay AID540276 (National Center for Advancing Translational Sciences (NCATS), 2011)
Hit rate of the full screen: of about 300,000 compounds, about 5,400 (1.8%) were called active. This list was built around the results that the source calls inconclusive (neither active nor inactive); the mix of calls is not that of the screen. Calls follow the shape of the full dose curve; tested in HEK293 cells. Potencies beside an inconclusive call are fits to weak or partial responses and may not hold up.

experiment: qHTS for inhibitors of binding or entry into cells for Marburg Virus; settings: Marburg virus pseudotyped entry inhibition, cell reporter; series mostly up to 37.8 µM
Potency is read from the fitted curve at half-maximal effect.

| SMILES | Potency |
| --- | --- |
| CCOC(=O)C1=C(Nc2cccc(Cl)c2)OCC1=O | inconclusive: 3.16 µM [activator, partial curve, poor fit] |
| COc1ccc(-n2c(SCC(=O)O)nc3sc4c(c3c2=O)CCCC4)cc1 | inactive |
| Cc1cc(C)n(CCc2nc(-c3ccc(C(C)(C)C)cc3)cs2)n1 | inactive |
| Cc1ccc(C(C)C)c(OCCNC(=S)Nc2cccc3ccccc23)c1 | inconclusive: 8.2 µM [inhibitor, partial curve, poor fit] |
| Cc1ccc2c3c([nH]c2c1C)-c1nonc1CC3 | inactive |
| CCOC(=O)C1CCN(C(=O)C2CCN(S(=O)(=O)c3cccc4nsnc34)CC2)CC1 | inconclusive: 3.55 µM [activator, full curve, poor fit] |
| O=C(O)c1ccc(Nc2ccc(F)c(F)c2)c([N+](=O)[O-])c1 | inconclusive: 35.5 µM [activator, single point] |
| COC(=O)c1cc(NC(=O)c2ccccc2)c(=O)oc1C | inactive |
| CN(CCO)c1cc(N2CCC3(CC2)OCCO3)c2nonc2c1[N+](=O)[O-] | inconclusive: 4.11 µM [activator, partial curve, poor fit] |
| Cc1c(NC(=S)NC(NC(=O)C(C)C)C(Cl)(Cl)Cl)c(=O)n(-c2ccccc2)n1C (centres undefined) | inconclusive: 1.58 µM [inhibitor, partial curve, poor fit] |
| Nc1c(Cl)c(Cl)nc(C(=O)OCC(=O)N2CCCC2=O)c1Cl | inconclusive: 0.891 µM [inhibitor, single point] |
| N=c1c(C(=O)NCC2CCCO2)cc2c(=O)n3ccccc3nc2n1C1CCCC1 (centres undefined) | inconclusive: 17.8 µM [inhibitor, partial curve, poor fit] |
| COc1cc(CNC2CCCC2)cc(Cl)c1OCc1ccc(F)cc1 | inconclusive: 17.8 µM [inhibitor, single point] |
| CCn1c(/C=C/c2ccc([N+](=O)[O-])o2)nc2ccccc2c1=O | inconclusive: 2.91 µM [inhibitor, full curve, poor fit] |
| COc1ccccc1NC(=O)NNC(=O)c1ccc2ccccc2c1 | inactive |
| CN1CCN(C(=O)COc2ccc(Oc3ccccc3)cc2)CC1 | inactive |
| CCc1nn2c(-c3ccco3)ccnc2c1-c1ccc(F)cc1 | inactive |
| CCCCN(C(=O)c1cc(S(=O)(=O)N2CCCCCC2)ccc1OC)c1ccccc1 | inconclusive: 35.5 µM [inhibitor, single point] |
| Cc1ccc(S(=O)(=O)N2CCCC2CNC(=O)c2ccc3c(c2)OCO3)cc1 (centres undefined) | inconclusive: 10 µM [inhibitor, partial curve, poor fit] |
| CNC(=S)NNC(=O)c1cc(C(C)(C)C)nn1Cc1ccc(F)cc1 | inactive |
| COc1cc(S(=O)(=O)N2CCN(C(=O)c3ccccc3F)CC2)c(OC)cc1NC(C)=O | inconclusive: 35.5 µM [inhibitor, partial curve, poor fit] |
| COc1cccc2cc(C(C)N(CCCN3CCOCC3)C(=S)Nc3cccc(C)c3C)oc12 (centres undefined) | inconclusive: 17.8 µM [inhibitor, partial curve, poor fit] |
| C#CCSc1nc2sc3c(c2c(=O)n1-c1cccc(OC)c1)CCN(C(C)=O)C3 | inactive |

| SMILES | Potency |
| --- | --- |
| CCCC1=C(C(=O)OCC)C(c2cc(Cl)cc(OC)c2OCC(=O)OCC)NC(=O)N1 (centres undefined) | inconclusive: 20 µM [inhibitor, single point] |
| O=C(N/N=C/c1cn(Cc2ccccc2)c2ccccc12)c1ccncc1 | inconclusive: 11.2 µM [inhibitor, partial curve, poor fit] |
| COc1ccc(C(=O)N(CCc2ccccc2)Cc2ccccc2)c(OC)n1 | inconclusive: 22.4 µM [inhibitor, single point] |
| CC(=O)NC(=S)Nc1ccc2oc(=O)ccc2c1 | inactive |
| O=C(NC1CC1)c1cc2cc3ccccc3nc2s1 | inconclusive: 6.31 µM [activator, single point] |
| CC(C)NC(=S)N/N=C/C1=CCC2CC1C2(C)C (centres undefined) | inconclusive: 35.5 µM [inhibitor, single point] |
| O=[n+]1c2c(n([O-])c3cc(F)c(N4CCCC4)cc31)CCC2 | inconclusive: 6.31 µM [inhibitor, single point] |
| O=C(/C=C/Nc1ccc(F)cc1F)c1ccc(Br)cc1 | inconclusive: 0.891 µM [activator, partial curve, poor fit] |
| CCOC(=O)c1c(NC(=O)c2ccccc2Cl)sc2c1CCc1ccccc1-2 | inactive |
| Cc1ccc(OCCNC(=O)Cc2ccc(S(=O)(=O)N3CCOCC3)s2)cc1 | inactive |
| Cc1ccc(C)c(OCC(=O)O/N=C(\N)c2cccc([N+](=O)[O-])c2)c1 | inconclusive: 35.5 µM [inhibitor, single point] |
| COC(=O)c1[nH]c(C)c(/C(O)=C2\C(=O)C(=O)N(CCN3CCOCC3)C2c2ccc(C)o2)c1C (centres undefined) | inactive |
| Cc1ccc2oc(-c3ccc(C)c(NC(=O)c4ccc5c(c4)OCCO5)c3)nc2c1 | inconclusive: 6.31 µM [activator, single point] |
| COc1ccc(OCc2cc(C(=O)N(C)Cc3cnccn3)no2)c(Cl)c1 | inactive |
| COc1ccc(NC(=O)Cn2c(=O)n(-c3cccc(C)c3)c(=O)c3c2c2cc(C)ccc2n3C)cc1OC | inactive |
| N#Cc1cccnc1Nc1ccc(Cl)cc1 | inactive |
| NS(=O)(=O)c1ccc(CCNC(=O)CN2CCN(c3cccc(Cl)c3)CC2)cc1 | inconclusive: 9.2 µM [inhibitor, partial curve, poor fit] |
| Cc1[nH]c2ccccc2c1C(=O)CSc1ccc(Cl)cc1 | inactive |
| CC(=O)Nc1ccc(S(=O)(=O)N2CCN(c3cc4c(cc3[N+](=O)[O-])n(C)c(=O)n4C)CC2)cc1 | inactive |
| Cc1cccc(-n2cc(C#N)c(=O)[nH]c2=O)n1 | inconclusive: 3.98 µM [inhibitor, partial curve, poor fit] |
| COc1ccc(-c2n[nH]c3c2C(c2ccc(Cl)cc2Cl)NC3=O)cc1 (centres undefined) | inactive |
| Cc1cc(=O)[nH]c(Nc2ccc(C(=O)OC(C)C)cc2)n1 | inactive |
| Cc1ccc(NC(=O)CCC(=O)NNC(=O)c2ccccc2[N+](=O)[O-])c(C)c1 | inconclusive: 7.94 µM [activator, partial curve] |

| SMILES | Potency |
| --- | --- |
| CC1(C)CC(=O)c2cc(OCC(=O)N3CCOCC3)ccc2O1 | inconclusive: 0.891 µM [inhibitor, full curve] |
| COC(=O)c1cc(C(=O)OC)cc(N2C(=O)CC(Sc3nc(C)cc(C)n3)C2=O)c1 (centres undefined) | inactive |
| O=C(c1ccccc1)N(Cc1ccc(F)cc1)Cc1nc2ccccc2c(=O)[nH]1 | inactive |
| N#C/C(=C\c1ccc(OCc2ccccc2)cc1)C(=O)Nc1nc2c(s1)CCN(Cc1ccccc1)C2 | inconclusive: 11.2 µM [activator, partial curve, poor fit] |
| COc1ccc(CN2CCN(Cc3ccc(C)cc3)CC2)c(OC)c1 | active: 10 µM |
| COC(=O)c1ccc(CN2C(=O)NC(c3ccccc3)(c3ccccc3)C2=O)o1 | inconclusive: 35.5 µM [inhibitor, single point] |
| Cc1cccc2nc(CSc3ccccc3C(=O)O)cn12 | inconclusive: 6.31 µM [activator, single point] |
| Cc1cccc(Nc2nc(Nc3cccc(C)c3)nc(N3CCOCC3)n2)c1 | inconclusive: 1.12 µM [inhibitor, full curve, poor fit] |
| CC(C)Cc1nc(N2CCN(C(=O)C(C)C)CC2)c(C#N)c2c1CCC2 | inconclusive: 17.8 µM [inhibitor, single point] |
| Cc1ccc(S(=O)(=O)N(CC(=O)N/N=C/c2ccccc2C(=O)O)c2cc(Cl)cc(Cl)c2)cc1 | inconclusive: 35.5 µM [inhibitor, single point] |
| Cc1cc(C)n(-c2ccc(F)cc2CN2CCN(C3CCCC3)C(CCO)C2)n1 (centres undefined) | inactive |
| O=C(CN1CCCC1)NC12CC3CC(CC(C3)C1)C2 | inconclusive: 1 µM [activator, partial curve, poor fit] |
| COc1ccc(-c2ncc(CN3CCN(CCC(C)C)C(CCO)C3)cn2)cc1 (centres undefined) | inconclusive: 28.2 µM [inhibitor, partial curve, poor fit] |
| COc1ccc(NC2=C(NCCO)C(=O)c3ccccc3C2=O)cc1 | inconclusive: 7.08 µM [inhibitor, partial curve, poor fit] |
| CCN(CC)c1ccc(NC(=O)COc2ccc(C#N)cc2)cc1S(=O)(=O)Nc1ccc(OC)cc1 | inconclusive: 5.62 µM [inhibitor, partial curve, poor fit] |
| Cc1ccc(S(=O)(=O)Nc2ccnc(-c3cccnc3)n2)cc1 | inactive |
| CC1CCN(C(=S)Nc2ccc3nc4n(c(=O)c3c2)CCCCC4)CC1 | inconclusive: 7.08 µM [inhibitor, partial curve, poor fit] |
| O=C(Nc1cc(S(=O)(=O)N2CCOCC2)ccc1Oc1ccc(F)cc1)C1=COCCO1 | inactive |
| O=C(Cc1ccc(-c2ccccc2)cc1)NC1CCCC1 | inactive |
| COc1ccc(/C=N/NC(=O)c2cc(C34CC5CC(CC(C5)C3)C4)[nH]n2)cc1O | inconclusive: 5.62 µM [activator, single point] |
| CCOC(=O)c1nc(Nc2ccc(OC)cc2)c2ccccc2n1 | inconclusive: 35.5 µM [inhibitor, single point] |
| Cc1cccc(N=Nc2c(O)[nH]c3ccc(Br)cc23)c1 | inactive |
| CCOC(=O)N1CCC(N2C(=O)c3ccccc3C2Nc2cc(C)cc(C)c2)CC1 (centres undefined) | inconclusive: 8.91 µM [inhibitor, partial curve, poor fit] |

Looked up one by one from above, 6 records:

| SMILES | Potency |
| --- | --- |
| COC(=O)c1cc(C(=O)OC)cc(N2C(=O)CC(Sc3nc(C)cc(C)n3)C2=O)c1 (centres undefined) | inactive |
| Cc1ccc(S(=O)(=O)Nc2ccnc(-c3cccnc3)n2)cc1 | inactive |
| CC(C)Cc1nc(N2CCN(C(=O)C(C)C)CC2)c(C#N)c2c1CCC2 | inconclusive: 17.8 µM [inhibitor, single point] |
| COC(=O)c1ccc(CN2C(=O)NC(c3ccccc3)(c3ccccc3)C2=O)o1 | inconclusive: 35.5 µM [inhibitor, single point] |
| CC1(C)CC(=O)c2cc(OCC(=O)N3CCOCC3)ccc2O1 | inconclusive: 0.891 µM [inhibitor, full curve] |
| COc1ccc(-c2ncc(CN3CCN(CCC(C)C)C(CCO)C3)cn2)cc1 (centres undefined) | inconclusive: 28.2 µM [inhibitor, partial curve, poor fit] |
